Taken from: PubChem BioAssay AID1508597 (Cure First, 2020)
Aim: 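Genes whose silencing sensitises or protects ovarian cancer cells against rucaparib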 (primary screen). Cells: human ovarian carcinoma lines grown from tumours: OCI-P5x (papillary serous) and OCI-C5x (clear cell). Reagents: siRNA pool against human genes, 1.25 pmol siRNA per well. Duration: 72 h or 96 h, depending on the cell culture. Conditions: rucaparib 20 µM (about IC30) or vehicle, present until read-out. Rucaparib or vehicle: Vehicle. Cell line: OCI-P5x (serous). Detection: 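ATP luminescence measured at 72 or 96 h according to the culture, then normalised and expressed as percent viability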. Direction: viability, normalised: higher = more viable cells remaining. Active means: 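Active when normalised viability falls below 80 percent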. Calls: active = viability under 80%; inactive = viability 80% or more.
This is a random part of the about 2,100 reagents, in one setting of the screen. 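Calls flag viability under 80% in either arm, not effects specific to rucaparib; the reference for percent is not stated.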 A reagent listed more than once was tested more than once; the source does not tell the runs apart. The record does not give: the 100% reference.

gene | technical replicate | viability, normalised (%) | Call
PRKAR1A | 1 | 69.4 | active
PRKAR1A | 2 | 77.6 | active
PRKAR1A | 3 | 57.7 | active
PIAS1 (protein inhibitor of activated STAT 1) | 1 | 35.9 | active
PIAS1 (protein inhibitor of activated STAT 1) | 2 | 39 | active
PIAS1 (protein inhibitor of activated STAT 1) | 3 | 63.9 | active
KDM5D (lysine demethylase 5D) | 1 | 67 | active
KDM5D (lysine demethylase 5D) | 2 | 71.9 | active
KDM5D (lysine demethylase 5D) | 3 | 56.5 | active
RYK (receptor like tyrosine kinase) | 1 | 88.7 | inactive
RYK (receptor like tyrosine kinase) | 2 | 62.3 | active
RYK (receptor like tyrosine kinase) | 3 | 91.5 | inactive
CSMD3 (CUB and Sushi multiple domains 3) | 1 | 90.7 | inactive
CSMD3 (CUB and Sushi multiple domains 3) | 2 | 89 | inactive
CSMD3 (CUB and Sushi multiple domains 3) | 3 | 82.6 | inactive
DDX46 (DEAD-box helicase 46) | 1 | 66.4 | active
DDX46 (DEAD-box helicase 46) | 2 | 75.9 | active
DDX46 (DEAD-box helicase 46) | 3 | 61.3 | active
BMP7 (bone morphogenetic protein 7) | 1 | 74.1 | active
BMP7 (bone morphogenetic protein 7) | 2 | 87.5 | inactive
BMP7 (bone morphogenetic protein 7) | 3 | 80.9 | inactive
MACROD2 (mono-ADP ribosylhydrolase 2) | 1 | 64.3 | active
MACROD2 (mono-ADP ribosylhydrolase 2) | 2 | 62.5 | active
MACROD2 (mono-ADP ribosylhydrolase 2) | 3 | 97.2 | inactive
GALK2 (galactokinase 2) | 1 | 65.3 | active
GALK2 (galactokinase 2) | 2 | 73.4 | active
GALK2 (galactokinase 2) | 3 | 82.2 | inactive
RBBP7 (RB binding protein 7, chromatin remodeling factor) | 1 | 70 | active
RBBP7 (RB binding protein 7, chromatin remodeling factor) | 2 | 66.7 | active
RBBP7 (RB binding protein 7, chromatin remodeling factor) | 3 | 87.6 | inactive
FBXO11 (F-box protein 11) | 1 | 41.3 | active
FBXO11 (F-box protein 11) | 2 | 50.4 | active
FBXO11 (F-box protein 11) | 3 | 78.8 | active
SMYD1 (SET and MYND domain containing 1) | 1 | 52 | active
SMYD1 (SET and MYND domain containing 1) | 2 | 52 | active
SMYD1 (SET and MYND domain containing 1) | 3 | 59.8 | active
AURKA (aurora kinase A) | 1 | 35 | active
AURKA (aurora kinase A) | 1 | 57 | active
AURKA (aurora kinase A) | 2 | 41.7 | active
AURKA (aurora kinase A) | 2 | 58.5 | active
AURKA (aurora kinase A) | 3 | 45 | active
AURKA (aurora kinase A) | 3 | 47.3 | active
RIOK3 (RIO kinase 3) | 1 | 93.7 | inactive
RIOK3 (RIO kinase 3) | 2 | 94.3 | inactive
RIOK3 (RIO kinase 3) | 3 | 84.4 | inactive
FAAP24 (FA core complex associated protein 24) | 1 | 64.3 | active
FAAP24 (FA core complex associated protein 24) | 2 | 67.8 | active
FAAP24 (FA core complex associated protein 24) | 3 | 78.4 | active
CFAP46 (cilia and flagella associated protein 46) | 1 | 83.1 | inactive
CFAP46 (cilia and flagella associated protein 46) | 2 | 87.8 | inactive
CFAP46 (cilia and flagella associated protein 46) | 3 | 79.8 | active
PDE4D (phosphodiesterase 4D) | 1 | 33.9 | active
PDE4D (phosphodiesterase 4D) | 2 | 54.5 | active
PDE4D (phosphodiesterase 4D) | 3 | 53.4 | active
BNIP3 (BCL2 interacting protein 3) | 1 | 35.4 | active
BNIP3 (BCL2 interacting protein 3) | 2 | 50.1 | active
BNIP3 (BCL2 interacting protein 3) | 3 | 42 | active
FASTK (Fas activated serine/threonine kinase) | 1 | 53.7 | active
FASTK (Fas activated serine/threonine kinase) | 2 | 72.4 | active
FASTK (Fas activated serine/threonine kinase) | 3 | 59.2 | active
PRP4K (pre-mRNA processing factor kinase PRP4K) | 1 | 89.8 | inactive
PRP4K (pre-mRNA processing factor kinase PRP4K) | 2 | 91.6 | inactive
PRP4K (pre-mRNA processing factor kinase PRP4K) | 3 | 59.3 | active
GON4L (gon-4 like) | 1 | 56.1 | active
GON4L (gon-4 like) | 2 | 60.7 | active
GON4L (gon-4 like) | 3 | 52 | active
IRS2 (insulin receptor substrate 2) | 1 | 76.2 | active
IRS2 (insulin receptor substrate 2) | 2 | 56.1 | active
IRS2 (insulin receptor substrate 2) | 3 | 53.2 | active
GEMIN4 (gem nuclear organelle associated protein 4) | 1 | 67.3 | active
GEMIN4 (gem nuclear organelle associated protein 4) | 2 | 78.5 | active
GEMIN4 (gem nuclear organelle associated protein 4) | 3 | 74.9 | active
SMPDL3B (sphingomyelin phosphodiesterase acid like 3B) | 1 | 71.9 | active
SMPDL3B (sphingomyelin phosphodiesterase acid like 3B) | 2 | 69.2 | active
SMPDL3B (sphingomyelin phosphodiesterase acid like 3B) | 3 | 76.4 | active

Ordered by “viability, normalised (%)” (high to low): 7 of the entries above.
gene | technical replicate | viability, normalised (%) | Call
RYK (receptor like tyrosine kinase) | 1 | 88.7 | inactive
KDM5D (lysine demethylase 5D) | 2 | 71.9 | active
KDM5D (lysine demethylase 5D) | 1 | 67 | active
PIAS1 (protein inhibitor of activated STAT 1) | 3 | 63.9 | active
KDM5D (lysine demethylase 5D) | 3 | 56.5 | active
PIAS1 (protein inhibitor of activated STAT 1) | 2 | 39 | active
PIAS1 (protein inhibitor of activated STAT 1) | 1 | 35.9 | active
